# Test results: publication PMC4575030 (PLoS ONE, 2015)
# System: naïve rats
# Assay: Open field activity (basic movement)
# Format: in vivo, rat
# Settings: diazepam 10 mg/kg
# Protocol: Basic movement was measured using the Photobeam Activity System Open Field (San Diego Instruments, San Diego, CA) equipped with 48 infrared photocell emitters and detectors. Photobeams used to measure vertical movement were positioned 14 cm above the test chamber floor. Each testing chamber was made of Plexiglas (41 x 41 x 36 cm) and was devoid of any bedding. At the beginning of the test session, each animal was placed in a separate testing chamber and the room lights were turned off. Basic movement was measured for 30 minutes.
structure (smiles),measurement,value
"CN1C(=O)CN=C(c2ccccc2)c2cc(Cl)ccc21 [Diazepam, diazepam, reference compound]",Reduction in basic movement,67%
